Earlier results, collected in US20100040669A1, “Non-Invasive Ocular Delivery of Rapamycin” (priority 2008, published 2010).

Details: in water; stated as "on the order of about"

CO[C@H]1C[C@@H]2CC[C@@H](C)[C@@](O)(O2)C(=O)C(=O)N2CCCC[C@H]2C(=O)O[C@H]([C@H](C)C[C@@H]2CC[C@@H](O)[C@H](OC)C2)CC(=O)[C@H](C)/C=C(\C)[C@@H](O)[C@@H](OC)C(=O)[C@H](C)C[C@H](C)/C=C/C=C/C=C/1C [rapamycin]
water solubility: about 2.8 μM
